For some of these results: For at least one compound, name, drawing or mass did not settle the structure. Some of these results come from one statement about several compounds together.
What was measured:
[1] = tested on: methicillin-resistant S. aureus strain LAC biofilm; assay: Established catheter-associated biofilm in vitro; type: cell-based, Staphylococcus aureus; conditions: 20 times MIC, six catheters
Method: Each well was inoculated with the methicillin-resistant S. aureus strain LAC or P. aeruginosa ATCC 27853 to an OD600nm of 0.05. […] After 72 h of exposure, catheters were rinsed with PBS, followed by sonication (for S. aureus) or vigorous vortexing (for P. aeruginosa) to quantitatively recover adherent bacteria. Viable S. aureus or P. aeruginosa cells were enumerated by plating serial dilutions on TSA.

[2] = tested on: A. baumannii FDA-CDC AR 0063; type: cell-based, Acinetobacter baumannii; conditions: A. baumannii AR 0063; TSB 37° C.; analogues 4 μg/ml, antibiotics 1 μg/ml; within 24 h
Method: (§1) Bacterial viable counts were determined at 0, 2, 4, 6, and 24 h after antimicrobial treatment. Bacterial surviving counts at 24 h endpoints were subjected to analysis of variance (ANOVA) followed by Tukey's honest significant difference (HSD) tests using SPSS Statistics (version 24; SPSS, Inc., Chicago, Ill., USA).

[3] = tested on: K. pneumoniae FDA-CDC AR 0097; assay: Time-kill kinetics in tryptic soy broth, alone and combined; type: cell-based, Klebsiella pneumoniae; conditions: K. pneumoniae AR 0097; TSB; analogues 4 μg/ml, antibiotics 1 μg/ml
Method: as §1

Row | SMILES | catheters completely cleared of viable bacteria [1] | increase of bacterial population, single agent [2] | bactericidal activity, single agent (in words) [3]
1 | CCO/N=C(\C(=O)N[C@@H]1C(=O)N2C(C(=O)[O-])=C(Sc3nc(-c4cc[n+](C)cc4)cs3)CS[C@H]12)c1nsc(N)n1 [ceftaroline, reference compound] | none were cleared | – | –
2 | CC[C@H]1OC(=O)[C@H](C)[C@@H](O[C@H]2C[C@@](C)(OC)[C@@H](O)[C@H](C)O2)[C@H](C)[C@@H](O[C@@H]2O[C@H](C)C[C@H](N(C)C)[C@H]2O)[C@](C)(OC)C[C@@H](C)C(=O)[C@H](C)[C@@H](O)[C@]1(C)O [clarithromycin] | – | 2.1-3.0 log | –
3 | CO[C@H]1/C=C/O[C@@]2(C)Oc3c(C)c(O)c4c(O)c(c(/C=N/N5CCN(C)CC5)c(O)c4c3C2=O)NC(=O)/C(C)=C\C=C\[C@H](C)[C@H](O)[C@@H](C)[C@@H](O)[C@@H](C)[C@H](OC(C)=O)[C@@H]1C [rifampicin] | – | 2.1-3.0 log | not bactericidal

— patent US11364275B2, “Linear lipopeptide paenipeptins and methods of using the same” (priority 2017, dated 2022)
